PubChem BioAssay AID602196 – INSERM, 2012
Test: 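Knock-downs that protect lung cancer cells from cisplatin or sensitise them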. Cell system: human A549 lung cancer cells. Reagent: siRNA pair against human genes. Duration: 48 h transfection before cisplatin; time from cisplatin to read-out not stated. Conditions: cisplatin at a dose killing half of control-siRNA cells; exact dose and duration not given. Measured: 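Shift in cisplatin death relative to control siRNA, from -50 (all cells die) to +50 (no cells die); siRNAs harmful on their own scored 0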. Scale: two-siRNA summed score (-2 to +2): higher = both siRNAs protect from cisplatin killing; -2 means both sensitise; mean protection from cisplatin (shift in death): higher = protection from cisplatin killing. Hit rule: 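Each siRNA scores 0 if harmful alone by LDH or WST-1, otherwise +1 if it reduces and -1 if it increases cisplatin killing; a gene is active when both siRNAs agree (sum +2 or -2)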. Meaning of the calls: active = both siRNAs shift cisplatin killing the same way; inactive = no consistent shift, or siRNA harmful alone.
The deposit covers about 23,000 reagents; this is an unselected part. Over the whole deposit, 455 (2%) got an active call. 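Active includes both protection and sensitisation; some change values fall well beyond the stated -50 to +50 range.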 A number with no mark means an inactive call. Reagents against one gene are numbered here. Further read-outs or replicates are left out here. Not stated in the record: the amount of reagent.

gene	reagent no.	two-siRNA summed score (-2 to +2)	mean protection from cisplatin (shift in death) (%)
APOB	1	1	12
GPRASP3	1	0	-4.2
ARL4D	1	-1	-4.7
TDRD9	1	0	12.1
HHEX	1	0	10.3
CACNB4	1	0	-4.4
DDX31	1	1	9.4
LOC402505	1	0	13.8
LOC441469	1	0	1.3
LOC148206	1	0	10.5
MEGF8	1	0	0.2
MEGF8	2	0	12.4
ESYT1	1	0	6.8
OR8A1	1	-1	-2.6
MYEF2	1	0	2.9
MRPL40	1	0	11.8
THOC5	1	0	-0.4
ANGPTL3	1	-2 (active)	-27.3
PYROXD2	1	0	4.4
HSDL2	1	1	25.5
SLC15A3	1	0	-5
NOL10	1	0	4.2
VAMP2	1	1	9.3
ACO2	1	0	7.1
IL7R	1	0	-12.2
RNASE4	1	0	-3
TMEM183A	1	0	-12.1
RPS16	1	0	17
LOC391542	1	1	9.4
B3GNT8	1	1	16.4
LOC441655	1	1	8.8
KIF5A	1	-1	-16.3
CALY	1	-1	0.5
DRAP1	1	1	15.4
OR5L1	1	0	-5.5
SCN7A	1	0	-7.1
PMP2	1	-1	-2.3

Reformatted: 11 of the entries above.
{"gene":"HSDL2","reagent no.":1,"two-siRNA summed score (-2 to +2)":1,"mean protection from cisplatin (shift in death) (%)":25.5}
{"gene":"SLC15A3","reagent no.":1,"two-siRNA summed score (-2 to +2)":0,"mean protection from cisplatin (shift in death) (%)":-5}
{"gene":"NOL10","reagent no.":1,"two-siRNA summed score (-2 to +2)":0,"mean protection from cisplatin (shift in death) (%)":4.2}
{"gene":"VAMP2","reagent no.":1,"two-siRNA summed score (-2 to +2)":1,"mean protection from cisplatin (shift in death) (%)":9.3}
{"gene":"ACO2","reagent no.":1,"two-siRNA summed score (-2 to +2)":0,"mean protection from cisplatin (shift in death) (%)":7.1}
{"gene":"IL7R","reagent no.":1,"two-siRNA summed score (-2 to +2)":0,"mean protection from cisplatin (shift in death) (%)":-12.2}
{"gene":"RNASE4","reagent no.":1,"two-siRNA summed score (-2 to +2)":0,"mean protection from cisplatin (shift in death) (%)":-3}
{"gene":"TMEM183A","reagent no.":1,"two-siRNA summed score (-2 to +2)":0,"mean protection from cisplatin (shift in death) (%)":-12.1}
{"gene":"RPS16","reagent no.":1,"two-siRNA summed score (-2 to +2)":0,"mean protection from cisplatin (shift in death) (%)":17}
{"gene":"LOC391542","reagent no.":1,"two-siRNA summed score (-2 to +2)":1,"mean protection from cisplatin (shift in death) (%)":9.4}
{"gene":"B3GNT8","reagent no.":1,"two-siRNA summed score (-2 to +2)":1,"mean protection from cisplatin (shift in death) (%)":16.4}

Next records follow:
gene	reagent no.	two-siRNA summed score (-2 to +2)	mean protection from cisplatin (shift in death) (%)
COMMD2	1	0	10.6
ARSB	1	0	16.7
AMBN	1	0	1.8
PDLIM2	1	0	1.2
ATP1A4	1	0	7.3
P2RY6	1	0	-3.4
RB1	1	0	1.4
MAGEE1	1	0	8.3
RABGAP1	1	0	0.9
DIPK2B	1	1	13.5
PUSL1	1	0	1.8
RPS4Y1	1	1	8.9
RAB3A	1	0	-3.7
PHLDB2	1	1	8.8
LOC390421	1	0	10.8
CTSZ	1	-1	-9.2
PTP4A1	1	0	-5.4
ZIC3	1	0	-9.2
NUP58	1	0	3.4
H3C6	1	0	14.8
COCH	1	2 (active)	16.4
LOC139793	1	0	2.5
ERI1	1	0	4.6
HSPA12A	1	0	18.8
TMSB10	1	0	11.7
COPG2	1	0	-0.8
BIN3	1	0	-8.7
EDN3	1	0	3.5
LOC440546	1	1	17.4
RAMAC	1	0	2.2
STEAP4	1	0	-11.4
GPBP1	1	0	4.7
JTB	1	0	4.7
POLR1A	1	1	11.5
PRAF2	1	1	10.1
DCP2	1	0	0.1
